Measurements as given in patent publication US11732008B2, “Preparation of functional homocysteine residues in polypeptides and peptides” (The Regents of the University of California, priority 2016, dated 2023).
Some of these results come from one statement about several compounds together.

Experiment: Solubility in water
Conditions: water at 22° C.

Substance | solubility in water
Poly(S-(3-azido-2-hydroxypropyl)-L-homocysteine) [Sample 27] | > 10000 µg/mL
Poly(S—((S)-3-2-ammonio-2-carboxylatoethoxy)-2-hydroxypropyl)-L-homocysteine) [Sample 30] | > 10000 µg/mL
